Assay results taken from PubChem BioAssay AID445 (National Center for Advancing Translational Sciences (NCATS), 2006).
The list shows a part of the results. These are further read-outs of the screen, such as a control signal, another cell line or another target. No call is given for them. Compounds called inactive in the main read-out are mostly missing here. Words in brackets tell the shape of the fitted curve; partial curves, single points and poor fits give uncertain potencies.

Assay: IkB Signaling
Conditions: ABC-DLBCL IkBa-CBG/CBR dual luciferase ratio (green luciferase fused to IkBa over red control in OCI-Ly3 lymphoma cells), 4 h; measured here: control luc red channel unless noted
How it was run: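 Curves were fitted separately to fusion (green), unfused (red) and ratio luminescence, then classed by r2, magnitude and activity. Cells: OCI-Ly3, 4 h compound plus doxycycline at 37C; 10 uM MG-132 defined full response.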

| SMILES | AC50 |
| --- | --- |
| COc1cccc(NC(=O)c2sc3nc(C)c(C(=O)Nc4ccc(C)cc4C)c(-c4ccco4)c3c2N)c1 | 3.16 µM [falling, full curve] |
| COc1ccc(OCC(=O)Nc2cccc(C(=O)OCc3cc(=O)n4nc(C)sc4n3)c2)cc1 | 1.26 µM [falling, partial curve] |
| COCc1cc(C)nc2sc(C(=O)Nc3ccc(C(C)=O)cc3)c(N)c12 | 0.316 µM [rising, full curve] |
| Cc1cc(OC(C)C(=O)N2CCC(c3nc4ccccc4o3)CC2)ccc1Cl (stereo not drawn) | 12.6 µM [falling, partial curve] |
| Cc1ccc(N(C)C(CNS(=O)(=O)c2ccccc2)c2ccccc2)cc1 (stereo not drawn) | 15.8 µM [falling, partial curve] |
| COc1ccc(S(=O)(=O)Cc2ccc(C(=O)N3CCN(c4cccc(C)c4C)CC3)o2)cc1 | 12.6 µM [falling, partial curve] |
| CCCNC(=O)C1CCN(C(=O)N2CC(C)Oc3ccccc32)CC1 (stereo not drawn) | 0.01 µM [falling, full curve] |
| CCCCN(C)S(=O)(=O)c1ccc(NC2=NS(=O)(=O)c3ccccc32)cc1 | 20 µM [falling, partial curve, poor fit] |
| O=C(Nc1sc2c(c1C(=O)O)CCCC2)c1cccs1 | 0.158 µM [falling, full curve] |
| Cc1ccc(NC(=O)Cn2cc(C(=O)c3ccco3)c3ccccc32)cc1C | 12.6 µM [falling, partial curve] |
| N#C/C(=C/c1ccccc1Cl)c1nc2ccccc2c(=O)[nH]1 | 3.16 µM [rising, partial curve] |
| COc1ccc2nc(NC(=O)C3CCN(S(=O)(=O)c4cccc5nsnc45)CC3)sc2c1 | 2.51 µM [falling, full curve] |
| Cc1ccc(NS(=O)(=O)c2ccc(OCC(=O)NCc3ccco3)cc2)cc1 | 6.31 µM [falling, partial curve] |
| Cc1ccccc1NC(=O)CNc1ccccc1N1CCCCC1 | 12.6 µM [falling, partial curve] |
| O=C(C1CCC(Cn2c(=O)c3sccc3n(Cc3cccc(F)c3)c2=O)CC1)N1CCOCC1 (stereo not drawn) | 10 µM [rising, partial curve] |
| Cc1cc2nn(-c3ccc(F)cc3)nc2cc1NC(=O)c1cccc([N+](=O)[O-])c1C | 12.6 µM [rising, partial curve] |
| COc1cccc(OC(=O)CSc2nnc(-c3cccs3)o2)c1 | 20 µM [falling, partial curve] |
| CC(=O)Nc1ccc(Nc2nc3c(S(=O)(=O)c4cc(C)ccc4C)nnn3c3ccsc23)cc1 | 25.1 µM [rising, partial curve] |
| Clc1cccc(-c2nc3ccccn3c2Nc2ccc3c(c2)OCCO3)c1 | 15.8 µM [falling, partial curve] |
| COC(=O)c1ccc(Nc2nc(-c3ccccc3Cl)nc3ccccc23)cc1 | 15.8 µM [falling, partial curve] |
| COc1ccc(N2C(=O)CSC23C(=O)N(CC(=O)Nc2ccccc2F)c2ccccc23)cc1 (stereo not drawn) | 39.8 µM [falling, single point] |

| SMILES | AC50 |
| --- | --- |
| Cc1ccc(N(C)S(=O)(=O)c2ccc(-c3coc(C)n3)cc2)cc1 | 25.1 µM [falling, single point] |
| O=C(CSc1nnc(-c2c[nH]c3ccccc23)o1)N(Cc1ccccc1)c1ccc(F)cc1 | 7.94 µM [falling, partial curve] |
| CCn1cc(C(=O)Nc2ccc3c(c2)OCCO3)c2cc(OC)c(OC)cc2c1=O | 10 µM [falling, partial curve] |
| CCc1nc2ccc(C(=O)N3CCN(c4cc(C)ccc4C)CC3)cc2nc1CC | 39.8 µM [falling, single point] |
| CCOc1ccc(CCNC(=O)c2cc3sccc3n2CC)cc1OCC | 15.8 µM [falling, single point] |
| CCOC(=O)CSc1nnc(CSc2nc3ccccc3c(=O)[nH]2)n1-c1ccccc1 | 20 µM [falling, partial curve] |
| Cc1nc2c(-c3ccc(F)cc3)c(C)nn2c(N2CCOCC2)c1C | 39.8 µM [falling, single point] |
| O=C(COC(=O)c1cccnc1Nc1cccc(C(F)(F)F)c1)NCCN1C(=O)CSC1=O | 20 µM [falling, single point] |
| COc1cc(C2C(C(=O)Nc3ccc(Cl)cc3)=C(C)Nc3nc(SC)nn32)cc(OC)c1OC (stereo not drawn) | 0.2 µM [rising, full curve, poor fit] |
| Cc1nn(CC(=O)NCCc2ccccc2)c(=O)c2nn(-c3ccccc3)c(C)c12 | 1.58 µM [rising, full curve] |
| Cc1ccc(-n2nc3c(N4CCC(C(=O)NC5CCCCC5)CC4)nnc(C)c3c2C)cc1 | 1.58 µM [falling, partial curve] |
| CC(C)Cc1ccc(S(=O)(=O)NCc2nc3cccnc3n2Cc2ccccc2)cc1 | 0.1 µM [rising, full curve, poor fit] |
| Cc1ccc(/C=C/C(=O)N2CCC(c3nc4ccccc4o3)CC2)cc1 | 0.794 µM [falling, full curve] |
| O=C(NCCCN1CCN(Cc2ccccc2)CC1)C1CCN(c2nnc(-n3cccc3)s2)CC1 | 6.31 µM [falling, partial curve] |
| CCCCNC(=O)c1ccc2c(c1)N=C(CC)c1ccccc1S2 | 0.398 µM [rising, full curve, poor fit] |
| CCc1cccc(CC)c1NC(=O)c1c(C)oc2ccc(O)c(CN3CCCC3)c12 | 12.6 µM [falling, single point] |
| COc1ccc(CCNc2oc(Cc3cccc4ccccc34)nc2C#N)cc1OC | 10 µM [falling, partial curve] |
| Cc1nc(NC(=O)c2cc3c(s2)CCCCC3)sc1C(=O)N(C)C | 5.01 µM [falling, partial curve] |
| Cc1ccc(N2C(=O)CSC23C(=O)N(CC(=O)NCc2ccccc2)c2ccccc23)cc1 (stereo not drawn) | 39.8 µM [falling, single point] |
| O=C(CN1C(=O)C2(SCC(=O)N2c2ccc(F)cc2)c2ccccc21)NC1CCCCC1 (stereo not drawn) | 12.6 µM [falling, partial curve] |
| Cc1ccccc1-n1nnnc1SCc1csc(-c2ccccc2)n1 | 25.1 µM [falling, single point] |

| SMILES | AC50 |
| --- | --- |
| Cc1ccc2c(c1)C(=O)OC(C(=O)Nc1ccccc1C(=O)O)C2 (stereo not drawn) | 0.158 µM [falling, full curve] |
| NC(=O)c1ccccc1N/C=C/C(=O)c1ccccc1 | 0.316 µM [falling, full curve] |
| O=S(=O)(c1ccc(-c2cnc(C3CC3)o2)cc1)N1CCN(c2ccccc2F)CC1 | 6.31 µM [falling, single point] |
| O=C(NCCCN1CCN(c2cccc(Cl)c2)CC1)c1ccc2nc(Cc3ccccc3)oc2c1 | 20 µM [falling, partial curve] |
| COc1cccc(CNC(=O)Cn2nc(C)c3sc4ccccc4c3c2=O)c1OC | 6.31 µM [falling, single point] |
| Cc1cccc(C)c1OCC(=O)N(Cc1ccco1)Cc1ccco1 | 20 µM [falling, single point] |
| C=Cc1ccc(Cn2c(C)c(CNCCc3ccc(OCC)cc3)c(C(=O)O)c2C)cc1 | 31.6 µM [falling, partial curve] |
| CCn1cc(C(=O)N2CCN(c3cccc(Cl)c3)CC2)c(=O)c2cc(S(=O)(=O)N3CCC(C)CC3)ccc21 | 7.94 µM [falling, partial curve] |
| Cc1ccc2c(=O)cc(CSc3ncn[nH]3)[nH]c2c1C | 0.02 µM [falling, full curve, poor fit] |
| COc1cc(C(=O)NCCc2sc(-c3cccc(F)c3)nc2C)cc(OC)c1OC | 25.1 µM [falling, partial curve] |
| Cc1nc2cc(-c3cccc(F)c3)nn2c(C)c1CCC(=O)NC(C)c1ccccc1 (stereo not drawn) | 5.01 µM [falling, partial curve] |
| COC(=O)c1c(NC(=O)C2c3ccccc3Oc3ccccc32)sc2c1CCC(C(C)(C)C)C2 (stereo not drawn) | 0.794 µM [falling, full curve] |
| COc1cc2c(cc1NC(=O)c1ccccc1C)n(C)c(=O)n2C | 10 µM [rising, partial curve, poor fit] |
| O=C(CSc1oc(-c2ccc(F)cc2)nc1S(=O)(=O)c1ccccc1)NC1CCCCC1 | 0.631 µM [falling, single point] |
| COc1ccc(CN(C(=O)CSc2nnc(-c3ccccc3F)o2)c2ccc(F)cc2)cc1 | 12.6 µM [falling, partial curve] |
| CCOC(=O)c1ccc(NC(=O)c2oc3c(c2C)-c2nn(Cc4ccccc4Cl)cc2CC3)cc1 | 2.51 µM [falling, full curve] |
| COCCOC(=O)c1c(C)oc2ccc(NS(=O)(=O)c3ccc(F)cc3)cc12 | 6.31 µM [falling, partial curve] |
| Cn1c(=O)c2c(nc(NCCc3ccccc3)n2Cc2ccc(F)cc2)n(C)c1=O | 7.94 µM [falling, partial curve] |
| CN(c1cccc(NC(=O)Nc2cccc(Cl)c2)c1)S(C)(=O)=O | 7.94 µM [falling, partial curve] |
| CCN1CCN(c2oc(COc3ccc(-c4ccccc4)cc3)nc2C#N)CC1 | 25.1 µM [falling, single point] |
| Cc1cc2oc(C(=O)N(Cc3ccc(N(C)C)cc3)Cc3ccco3)c(C)c2cc1Cl | 12.6 µM [falling, single point] |

A section from the list above:

| SMILES | AC50 |
| --- | --- |
| COc1ccc(CCNc2oc(Cc3cccc4ccccc34)nc2C#N)cc1OC | 10 µM [falling, partial curve] |
| Cc1nc(NC(=O)c2cc3c(s2)CCCCC3)sc1C(=O)N(C)C | 5.01 µM [falling, partial curve] |
